SMILES strings stand for the structures. Where a name gives a salt, the structure may show the parent alone.

Experiment [1] deals with longitudinal muscle of human vas deferens. In words: IC50 against contractions evoked by high K+ (120 mM) in the presence of FPL 64176, longitudinal muscle strips. Conditions: contractions evoked by K+ (120 mM) in the presence of FPL 64176 (1 μM), means ± S.E.M. The procedure: (§1) Human vas deferens specimens were obtained after elective vasectomies of healthy fertile men. College ethical approval and the consent of patients were obtained. The specimens were placed in ice-cold Krebs' medium, dissected-free of connective tissue/blood vessels and cut longitudinally into strips (longitudinal muscle preparations; 5-10 mm long & 1 mm wide) or transversely into rings (circular muscle preparations; 3 mm in length). […] Contractile responses were recorded via a Harvard-type force-displacement transducer. […]
(§2) Tissues were equilibrated for 180 min in Krebs' medium containing inhibitors of extraneuronal and neuronal reuptake of noradrenaline, oestradiol (1 μM) and desipramine (0.1 μM) respectively, inhibitors of catechol-O-methyltransferase and monoamine oxidase, tropolone (10 μM) and iproniazid (10 μM) respectively and the β-adrenoceptor blocker, propranolol (1 μM). […] The resulting contractions were measured (see below) and expressed as a percentage of corresponding initial responses to high [K^+]o evoked in the presence of L-type Ca^2+ agonists (i.e. before exposure to L-type Ca^2+ antagonists). […]

Experiment [2] relates to circular muscle of human vas deferens. In words: IC50 against contractions evoked by high K+ (120 mM) in the presence of FPL 64176, circular muscle rings. Conditions: contractions evoked by K+ (120 mM) in the presence of FPL 64176 (1 μM), means ± S.E.M. Here is the method:
as §1, §2

Consider `C(=C\c1ccccc1)/CN1CCN(C(c2ccccc2)c2ccccc2)CC1` [Cinnarizine, cinnarizine], for which the figures for the IC50 in experiment [1] and in experiment [2] were 11.4 ± 3.3 µM and 18.5 ± 5.7 µM, respectively.

With `CSc1ccc2c(c1)N(CCC1CCCCN1C)c1ccccc1S2` (stereo not shown) [Thioridazine, thioridazine hydrochloride], the figures for the IC50 in experiment [1] and in experiment [2] were 7.9 ± 2.3 µM and 22.3 ± 3.3 µM, respectively.

(Values after patent US8927579B2, “Male contraceptive” (priority 2007, dated 2015).)
